According to paper PMC5589848:
The exact form of at least one protein or probe is not confirmed. For part of these data: Results from cells or extracts need not show a direct contact. At least one verdict rests on a figure or table, not on a statement of the authors.

By UniProt entry, the sequences of proteins in these tests, tags left out. Where a name states a change or a piece, a line headed by the entry shows the natural chain unless it says otherwise.
UniProt O60479: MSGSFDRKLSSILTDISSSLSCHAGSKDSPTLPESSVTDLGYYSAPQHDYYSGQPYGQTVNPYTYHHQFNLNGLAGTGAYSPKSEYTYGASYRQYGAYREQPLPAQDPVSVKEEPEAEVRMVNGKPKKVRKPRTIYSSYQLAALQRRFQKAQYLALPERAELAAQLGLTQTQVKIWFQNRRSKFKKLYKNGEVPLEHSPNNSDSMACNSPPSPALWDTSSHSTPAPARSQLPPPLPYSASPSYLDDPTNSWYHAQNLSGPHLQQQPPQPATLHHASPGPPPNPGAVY
UniProt Q8VI67: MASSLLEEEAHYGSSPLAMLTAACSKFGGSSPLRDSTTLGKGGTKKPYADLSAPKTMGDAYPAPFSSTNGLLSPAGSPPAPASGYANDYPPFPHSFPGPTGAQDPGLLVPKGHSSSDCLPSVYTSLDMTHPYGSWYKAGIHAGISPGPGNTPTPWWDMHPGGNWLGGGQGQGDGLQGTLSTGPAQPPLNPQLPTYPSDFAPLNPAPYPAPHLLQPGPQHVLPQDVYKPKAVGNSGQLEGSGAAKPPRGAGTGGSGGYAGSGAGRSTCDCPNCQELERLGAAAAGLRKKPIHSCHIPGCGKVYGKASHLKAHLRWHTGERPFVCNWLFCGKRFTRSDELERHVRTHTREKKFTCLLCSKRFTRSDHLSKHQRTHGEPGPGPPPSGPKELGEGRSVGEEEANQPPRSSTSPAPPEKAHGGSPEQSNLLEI

Tests used:
Dlx3 (recombinant) = Dlx3 (recombinant) (UniProt O60479); experiment: EMSA; conditions: anti-Dlx3 supershift, cold competitor 100x; EMSA as described previously (binding buffer not given); 5% native polyacrylamide gel in 1x TBE; 100-fold molar excess of unlabeled competitor; recombinant protein; label: 32P
[1] = target: Osx (nuclear extract of MD10-F2 cells) (mouse) (UniProt Q8VI67); experiment: EMSA; conditions: nuclear extract, anti-Osx supershift, cold competitor 100x; EMSA as described previously (binding buffer not given); 5% native polyacrylamide gel in 1x TBE; 100-fold molar excess of unlabeled competitor; protein in an extract; label: 32P

“GCGATAATTGCGATAATTGCGAAG (double strand) [Dlx3 (Con) Oligo]”: binds (Dlx3 (recombinant)).
“GCTCGCCCCGCCCCGATCTGAAT (double strand) [Osx (Con) Oligo]”: binds [1].
“GGGAGTGGGGCGTTATTACAGCC (double strand) [Osx Oligo]”: binds [1].
